# Laboratory results reported in the supplement of paper PMC8728848.
# The other results are listed elsewhere or left out.
# B1: Vd7LysM (Verticillium dahliae) (protein)
# chain: RRGPEPKYPPAAGTSSYCSYWVDYEGDKSCSRVLEDNVVVLKDFARWNPTVGADCSGIKAGNSYCVEAFGEPEPIEVTTTTRAATTTTQPTATTTTFANGIATPQPTQSGMVTNCNKFHWIAEGVSCSQVISFQKITLADFVKWNPSVKSDCSGMWAGVNVCVGVVGSSTDTAKPTTTAPSNGVVTPQPTQPSMVTNCNKFHWIAKGVTCQQVISYQKISLADFVKWNPSVLSDCSGMWAEVQVCVGVIGSTPTTLATTTTTAGNGVSTPLPTQPGMVTNCAKFHWVAKGVTCNQIYSFQKITLEQFVSYNPTVKSDCSGMQAEVQVCVGLIAGTTPTTTRPPTTTAPGNGVSTPQPTQPGMVTNCAKFHWVAKGVTCNQIYSFQKITLEQFVSFNPTVKSDCTGMQAEVNVCVGLIGGNPTPTQTGNGIATPTPIQPGMVSNCKKFHWIAQGVTCQQVISFQKITLADFVKWNTGVGSDCRTMWAETNVCVGV
# Assays:
# Assay in all cases: glycan array binding signal (z-score within array); higher = stronger binding
# Details in all cases: glycan notation: IUPAC condensed, linker removed
# [1] = target: Fuc(a1-3)[Gal3S(b1-4)]GlcNAc6S
# Method in brief: (§1)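 Columns mapping to the same glycan were averaged after glycan names were converted to IUPAC-condensed notation. The data come from 3228 arrays in the Consortium for Functional Glycomics database, limited to those with an available protein sequence. Binding is reported as a within-array Z-score averaged across arrays of one protein sequence and across linkers.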
# [2] = target: Fuc(a1-3)[GalNAc(b1-4)]GlcNAc
# Method in brief: as §1
# [3] = target: Fuc(a1-3)[GalNAc(b1-4)]GlcNAc6S
# Method in brief: as §1
# [4] = target: Fuc(a1-4)GlcNAc
# Method in brief: as §1
# [5] = target: Fuc(b1-3)GlcNAc
# Method in brief: as §1
# [6] = target: Gal(a1-2)Gal
# Method in brief: as §1
# [7] = target: Gal(a1-3)Gal
# Method in brief: as §1
# [8] = target: Gal(a1-3)Gal(b1-3)GlcNAc
# Method in brief: as §1
# [9] = target: Gal(a1-3)Gal(b1-3)GlcNAc(b1-2)Man
# Method in brief: as §1
# [10] = target: Gal(a1-3)Gal(b1-3)GlcNAc(b1-2)Man(a1-3)[Gal(a1-3)Gal(b1-3)GlcNAc(b1-2)Man(a1-6)]Man(b1-4)GlcNAc(b1-4)GlcNAc
# Method in brief: as §1
# [11] = target: Gal(a1-3)Gal(b1-3)GlcNAc(b1-3)GalNAc
# Method in brief: as §1
# [12] = target: Gal(a1-3)Gal(b1-3)GlcNAc(b1-6)GalNAc
# Method in brief: as §1
# [13] = target: Gal(a1-3)Gal(b1-3)[Fuc(a1-4)]GlcNAc(b1-2)Man(a1-3)[Gal(a1-3)Gal(b1-3)[Fuc(a1-4)]GlcNAc(b1-2)Man(a1-6)]Man(b1-4)GlcNAc(b1-4)GlcNAc
# Method in brief: as §1
# [14] = target: Gal(a1-3)Gal(b1-4)Glc
# Method in brief: as §1
# [15] = target: Gal(a1-3)Gal(b1-4)GlcNAc
# Method in brief: as §1
# [16] = target: Gal(a1-3)Gal(b1-4)GlcNAc(b1-2)Man
# Method in brief: as §1
# [17] = target: Gal(a1-3)Gal(b1-4)GlcNAc(b1-2)Man(a1-3)[Gal(a1-3)Gal(b1-4)GlcNAc(b1-2)Man(a1-6)]Man(b1-4)GlcNAc(b1-4)GlcNAc
# Method in brief: as §1
# [18] = target: Gal(a1-3)Gal(b1-4)GlcNAc(b1-3)GalNAc
# Method in brief: as §1
# [19] = target: Gal(a1-3)Gal(b1-4)GlcNAc(b1-6)GalNAc
# Method in brief: as §1
# [20] = target: Gal(a1-3)Gal(b1-4)[Fuc(a1-3)]GlcNAc
# Method in brief: as §1
# [21] = target: Gal(a1-3)Gal(b1-4)[Fuc(a1-3)]GlcNAc(b1-2)Man(a1-3)[Gal(a1-3)Gal(b1-4)[Fuc(a1-3)]GlcNAc(b1-2)Man(a1-6)]Man(b1-4)GlcNAc(b1-4)GlcNAc
# Method in brief: as §1
# [22] = target: Gal(a1-3)GalNAc
# Method in brief: as §1
# [23] = target: Gal(a1-3)[Gal(a1-4)]Gal(b1-4)GlcNAc
# Method in brief: as §1
# [24] = target: Gal(a1-4)Gal(b1-3)GlcNAc(b1-2)Man(a1-3)[Gal(a1-4)Gal(b1-3)GlcNAc(b1-2)Man(a1-6)]Man(b1-4)GlcNAc(b1-4)GlcNAc
# Method in brief: as §1
# [25] = target: Gal(a1-4)Gal(b1-4)Glc
# Method in brief: as §1
# [26] = target: Gal(a1-4)Gal(b1-4)GlcNAc
# Method in brief: as §1
# [27] = target: Gal(a1-4)Gal(b1-4)GlcNAc(b1-2)Man(a1-3)[Gal(a1-4)Gal(b1-4)GlcNAc(b1-2)Man(a1-6)]Man(b1-4)GlcNAc(b1-4)GlcNAc
# Method in brief: as §1
# [28] = target: Gal(a1-4)Gal(b1-4)GlcNAc(b1-3)Gal(b1-4)Glc
# Method in brief: as §1
# [29] = target: Gal(a1-4)GlcNAc
# Method in brief: as §1
# [30] = target: Gal(a1-6)Glc
# Method in brief: as §1
# [31] = target: Gal(b1-2)Gal
# Method in brief: as §1
# [32] = target: Gal(b1-3)Gal
# Method in brief: as §1
# [33] = target: Gal(b1-3)Gal(b1-4)GlcNAc
# Method in brief: as §1
# [34] = target: Gal(b1-3)GalNAc
# Method in brief: as §1
# [35] = target: Gal(b1-3)GalNAc(a1-3)[Fuc(a1-2)]Gal(b1-4)Glc
# Method in brief: as §1
# [36] = target: Gal(b1-3)GalNAc(a1-3)[Fuc(a1-2)]Gal(b1-4)GlcNAc
# Method in brief: as §1
# [37] = target: Gal(b1-3)GalNAc(b1-3)Gal
# Method in brief: as §1
binder,measurement,setting,value
B1,glycan array binding signal (z-score),[1],1.04
same,glycan array binding signal (z-score),[2],0.317
same,glycan array binding signal (z-score),[3],-0.031
same,glycan array binding signal (z-score),[4],0.351
same,glycan array binding signal (z-score),[5],-0.78
same,glycan array binding signal (z-score),[6],-1.84
same,glycan array binding signal (z-score),[7],-1.18
same,glycan array binding signal (z-score),[8],-0.163
same,glycan array binding signal (z-score),[9],0.613
same,glycan array binding signal (z-score),[10],-0.666
same,glycan array binding signal (z-score),[11],0.041
same,glycan array binding signal (z-score),[12],0.852
same,glycan array binding signal (z-score),[13],-0.823
same,glycan array binding signal (z-score),[14],0.539
same,glycan array binding signal (z-score),[15],-0.11
same,glycan array binding signal (z-score),[16],-0.674
same,glycan array binding signal (z-score),[17],-0.003
same,glycan array binding signal (z-score),[18],-0.765
same,glycan array binding signal (z-score),[19],0.551
same,glycan array binding signal (z-score),[20],0.289
same,glycan array binding signal (z-score),[21],-0.432
same,glycan array binding signal (z-score),[22],-0.371
same,glycan array binding signal (z-score),[23],-0.317
same,glycan array binding signal (z-score),[24],0.911
same,glycan array binding signal (z-score),[25],3.04
same,glycan array binding signal (z-score),[26],0.037
same,glycan array binding signal (z-score),[27],0.593
same,glycan array binding signal (z-score),[28],-0.7
same,glycan array binding signal (z-score),[29],0.386
same,glycan array binding signal (z-score),[30],-1.58
same,glycan array binding signal (z-score),[31],0.078
same,glycan array binding signal (z-score),[32],-0.192
same,glycan array binding signal (z-score),[33],0.537
same,glycan array binding signal (z-score),[34],-0.354
same,glycan array binding signal (z-score),[35],-0.263
same,glycan array binding signal (z-score),[36],1.36
same,glycan array binding signal (z-score),[37],0.702

# Random excerpt: 2 entries already listed, in no set order.
binder,measurement,setting,value
B1,glycan array binding signal (z-score),[25],3.04
same,glycan array binding signal (z-score),[20],0.289
